# System: F. varium KYA 8501
# Assay: MIC, antibacterial spectrum (anaerobic bacteria)
# Format: cell-based
# Conditions: Fusobacterium varium, KYA8501
smiles,measurement,value
"O=C(O)c1cn(C2CC2)c2cc(N3CCNCC3)c(F)cc2c1=O [CPFX, Ciprofloxacin, reference compound]",MIC,25 µg/mL

# From patent EP0221541A2, “Quinolonecarboxylic acid derivatives and their preparation” (KYORIN PHARMACEUTICAL CO., LTD., priority 1985, dated 1987)
